Most values lie at the floor of the assay. Slopes are relative: functional sequences can read slightly below zero.
System: Saccharomyces cerevisiae PS128 hsf1 delta, HSF1(1-493) fusion
Experiment: growth estimate (transactivation domain function in HSF1 fusion, heat-shock survival) (a.u. (slope of normalised read count over time)); higher = stronger growth at 37°C, i.e. more transactivation activity
Conditions: library: random library

| Substance | growth estimate |
| --- | --- |
| VRNHRSALLADFIACHGQGP | < -0.25 |
| VRNNRVVVPSGRLT | < -0.25 |
| VRP | < -0.25 |
| VRPGLLSIRELDNHRSARFA | < -0.25 |
| VRPGNSHPANGDEGRAIEAT | < -0.25 |
| VRPQVSRTLSQISMQNLNGY | < -0.25 |
| VRQGFECSV | < -0.25 |
| VRQPGIYS | < -0.25 |
| VRQQYTEWKGRCPEVLLRSE | < -0.25 |
| VRQVGILGGD | < -0.25 |
| VRRAKP | < -0.25 |
| VRRAMLCVITRQNPGLSFTH | -0.203 |
| VRRDN | < -0.25 |
| VRRFYT | < -0.25 |
| VRRGL | < -0.25 |
| VRRKNRGVCHSPA | < -0.25 |
| VRRKSLLSAWNSVHQMPHPM | < -0.25 |
| VRRPLGYVARNG | < -0.25 |
| VRRSDGNTPEGMTVSFSTRA | < -0.25 |
| VRRTRDGNVAALKTFALREI | < -0.25 |
| VRRYVRIVSLGYARGKEVIS | -0.246 |
| VRSANEGHKLFSSLSRYPQR | < -0.25 |
| VRSGVGTPPVRSARD | -0.247 |
| VRSNESIQALVFHSDLYS | < -0.25 |
| VRSQDKPGDNRN | < -0.25 |

| Substance | growth estimate |
| --- | --- |
| VRSRAFSRRGWITALAPHS | < -0.25 |
| VRSRALPLIDSYRSVQSHYG | < -0.25 |
| VRSSSGVSP | -0.246 |
| VRTGPPGSMLSKIERGVSLG | < -0.25 |
| VRTLS | < -0.25 |
| VRTRTVI | < -0.25 |
| VRTWRRCTRIRWC | < -0.25 |
| VRV | < -0.25 |
| VRVKT | < -0.25 |
| VRVLDGQRIIASLSIALPIS | < -0.25 |
| VRVLNYTHFSRFSNLPSLRH | < -0.25 |
| VRVP | < -0.25 |
| VRVPRIASIYSACHLGPQLD | < -0.25 |
| VRVVPAASKIYKMLAYSRAT | < -0.25 |
| VRWVASGGG | < -0.25 |
| VRYAMDGTLVARIAAGIVYQ | < -0.25 |
| VSAHCVNVRRSVCVESITGA | < -0.25 |
| VSARPIYSWRPHDLFRSADA | < -0.25 |
| VSAVGRGTLRSFSVERFLPD | < -0.25 |
| VSCESAVCAGPGLDIP | -0.246 |
| VSCLGINASGKWSKDQSRTS | < -0.25 |
| VSDTMSLSWMDLVDRQMTQR | < -0.25 |
| VSDYDSRGREPVVQGSAHKC | < -0.25 |
| VSEHGSRVDSQVLTVILASE | < -0.25 |
| VSERRSVQEKHR | < -0.25 |

| Substance | growth estimate |
| --- | --- |
| VSETYDNGTWYSGNTPTGCL | -0.224 |
| VSEWELSRVKESWPSVVYGV | < -0.25 |
| VSFEEGILIEGKQLCPQRGW | < -0.25 |
| VSFGVCTLLCEAGPSFAV | < -0.25 |
| VSGEIELTKAPESDMSHLAF | < -0.25 |
| VSGFPVSQRPSRARLARVHL | < -0.25 |
| VSGLSRG | < -0.25 |
| VSGMVLDLRGAAEDGVSPWH | < -0.25 |
| VSGRGLWAIRNSQPKIGGRA | < -0.25 |
| VSHLQSSVGTWCP | < -0.25 |
| VSILSIVVRLAHIG | < -0.25 |
| VSKITSRISLNINPK | < -0.25 |
| VSKPTLLVGYCCLTNYA | < -0.25 |
| VSLDT | < -0.25 |
| VSLLGLNIGTCGGRGTRRGL | -0.0557 |
| VSLP | < -0.25 |
| VSLRGEDRAEGVPPQ | < -0.25 |
| VSLSEDHGGAARVFRAVAEL | < -0.25 |
| VSLVGSPSLRYILGRLGRCG | < -0.25 |
| VSP | < -0.25 |
| VSPRVRKPR | < -0.25 |
| VSPSIHWSCCNDPPLVYAIG | < -0.25 |
| VSPVSCALNVDGSFMAPNAR | < -0.25 |
| VSPYGEWSEASAVVCLDVHC | < -0.25 |
| VSQSYCGSNRLYSQVHASAS | < -0.25 |

Part of the list above, bar-delimited:
Substance | growth estimate
VRSNESIQALVFHSDLYS | < -0.25
VRSQDKPGDNRN | < -0.25
VRSRAFSRRGWITALAPHS | < -0.25
VRSRALPLIDSYRSVQSHYG | < -0.25
VRSSSGVSP | -0.246
VRTGPPGSMLSKIERGVSLG | < -0.25
VRTLS | < -0.25
VRTRTVI | < -0.25
VRTWRRCTRIRWC | < -0.25
VRV | < -0.25
VRVKT | < -0.25
VRVLDGQRIIASLSIALPIS | < -0.25
VRVLNYTHFSRFSNLPSLRH | < -0.25
VRVP | < -0.25
VRVPRIASIYSACHLGPQLD | < -0.25
VRVVPAASKIYKMLAYSRAT | < -0.25
VRWVASGGG | < -0.25
VRYAMDGTLVARIAAGIVYQ | < -0.25
VSAHCVNVRRSVCVESITGA | < -0.25
VSARPIYSWRPHDLFRSADA | < -0.25
VSAVGRGTLRSFSVERFLPD | < -0.25
VSCESAVCAGPGLDIP | -0.246
VSCLGINASGKWSKDQSRTS | < -0.25
VSDTMSLSWMDLVDRQMTQR | < -0.25
VSDYDSRGREPVVQGSAHKC | < -0.25
VSEHGSRVDSQVLTVILASE | < -0.25
VSERRSVQEKHR | < -0.25
VSETYDNGTWYSGNTPTGCL | -0.224
VSEWELSRVKESWPSVVYGV | < -0.25
VSFEEGILIEGKQLCPQRGW | < -0.25
VSFGVCTLLCEAGPSFAV | < -0.25
VSGEIELTKAPESDMSHLAF | < -0.25
VSGFPVSQRPSRARLARVHL | < -0.25
VSGLSRG | < -0.25
VSGMVLDLRGAAEDGVSPWH | < -0.25
VSGRGLWAIRNSQPKIGGRA | < -0.25
VSHLQSSVGTWCP | < -0.25
VSILSIVVRLAHIG | < -0.25
VSKITSRISLNINPK | < -0.25
VSKPTLLVGYCCLTNYA | < -0.25
VSLDT | < -0.25
VSLLGLNIGTCGGRGTRRGL | -0.0557
VSLP | < -0.25
VSLRGEDRAEGVPPQ | < -0.25
VSLSEDHGGAARVFRAVAEL | < -0.25
VSLVGSPSLRYILGRLGRCG | < -0.25
VSP | < -0.25
VSPRVRKPR | < -0.25
VSPSIHWSCCNDPPLVYAIG | < -0.25
VSPVSCALNVDGSFMAPNAR | < -0.25
VSPYGEWSEASAVVCLDVHC | < -0.25

(continued)

| Substance | growth estimate |
| --- | --- |
| VSQTLSVVRHPPTIGSPRKI | < -0.25 |
| VSRAGWAEDRREVHCRLALL | < -0.25 |
| VSRHWRQRFQPEQCAPMPGP | < -0.25 |
| VSRSVTNSVVSSKFTRGSGS | < -0.25 |
| VSRWSIRPSVGHRTGSGAAS | < -0.25 |
| VSRYSGIDSVTAY | < -0.25 |
| VSS | < -0.25 |
| VSSNTLRSSPGGHGTILTCG | < -0.25 |
| VSSP | < -0.25 |
| VSSQESLQVTIDIIANVCAL | < -0.25 |
| VSSQPCFPAR | < -0.25 |
| VSSRIDQVGHYY | < -0.25 |
| VSSVDSYVGSLLFHKKPEDE | < -0.25 |
| VSTGLQVNTERST | < -0.25 |
| VSTKGLH | < -0.25 |
| VSTSALKLMLSHHV | < -0.25 |
| VSTVPGARWTVSARSGSCTT | < -0.25 |
| VSVCMKSVHKRVGPKTVFLL | < -0.25 |
| VSVGNLLVPRMRPIRNTRRN | < -0.25 |
| VSVMHWPDCGGGVCFDRDSG | -0.18 |
| VSVQGNVTVTIFVATGVYGQ | < -0.25 |
| VSVRMSYRLILGL | < -0.25 |
| VSVTRAVFRHEAVYLIPLRA | < -0.25 |
| VSVVYYWPRQGGALAAAILL | < -0.25 |
| VSYAAGELIFAHSRAGFTCE | < -0.25 |

| Substance | growth estimate |
| --- | --- |
| VSYVACT | < -0.25 |
| VTAANFVISPMIGFDDGERT | < -0.25 |
| VTAHLGLALWPRSAAILSWA | < -0.25 |
| VTASYRPRNRLIEDEPTVGK | < -0.25 |
| VTDAMGVAVWISM | < -0.25 |
| VTEGAKVPQSL | < -0.25 |
| VTETRRGQQPSR | < -0.25 |
| VTFL | < -0.25 |
| VTFPSSIIGRAGHSPLGVSV | < -0.25 |
| VTFRDDVSHTVPRRMRTNTA | < -0.25 |
| VTGLFSGAHACST | < -0.25 |
| VTGNNVSFLLQSCASEAERM | < -0.25 |
| VTGSK | < -0.25 |
| VTGVRVA | < -0.25 |
| VTIPTWGF | < -0.25 |
| VTKIHVASVLEASRHISRYV | < -0.25 |
| VTKQAPVVHPRSFFLSPTDV | < -0.25 |
| VTKVDVGAETLVSLRPV | < -0.25 |
| VTLPFLCAVDILNVYPLVRL | < -0.25 |
| VTNLLRPLTPYRRYGDDPSG | < -0.25 |
| VTNTSTEGNRHEHVVQYLIA | -0.25 |
| VTPGGPVTGKHSFCLLEFRE | < -0.25 |
| VTPIRRG | < -0.25 |
| VTPWSSRSGPGSVIYFS | < -0.25 |
| VTQSWGASKEFTEGAVCGP | < -0.25 |

| Substance | growth estimate |
| --- | --- |
| VTRAGGKPCAGIEKHKRVRL | < -0.25 |
| VTRDS | < -0.25 |
| VTRGTWMQRLNVIMWKSLSQ | < -0.25 |
| VTRP | < -0.25 |
| VTRRC | < -0.25 |
| VTRRRREGSRFGTRDSRIWS | < -0.25 |
| VTRRSSRQSSVQRVEKKCIT | < -0.25 |
| VTSHL | < -0.25 |
| VTSISTLTNAQGVTRERTVQ | < -0.25 |
| VTSLKPSHG | < -0.25 |
| VTSS | < -0.25 |
| VTSTLECWDGYVDWVWWM | < -0.25 |
| VTTSGSRSIG | < -0.25 |
| VTTSQMSSRAIAF | < -0.25 |
| VTVMPRKDAAYS | < -0.25 |
| VTYMECMPPVSCDTPISIHV | -0.246 |
| VVAPLHKRGKREWLDSILVK | < -0.25 |
| VVCTIDYPSCNYHGSRRS | < -0.25 |
| VVDMWPIRHRKRVGQWMIRS | < -0.25 |
| VVDRVAGKAVGFCST | < -0.25 |
| VVEDWLAL | 4.02 |
| VVEGNVQALRHAGSWGHSGK | < -0.25 |
| VVEIPWLMLIAARVPLWING | < -0.25 |
| VVESCPREVRGITARLMTRA | < -0.25 |
| VVETSD | < -0.25 |

| Substance | growth estimate |
| --- | --- |
| VVFRLVRLLACQSASEPWVS | < -0.25 |
| VVFTFWQSFHHLCRCRGHDR | < -0.25 |
| VVGLYWPGKWAGKLTVNFQS | < -0.25 |
| VVGNIQLYV | < -0.25 |
| VVGSEQV | < -0.25 |
| VVGSIEAPSHRWLTPNPRRR | < -0.25 |
| VVGSLGRSKSGPNHTFNIWG | < -0.25 |
| VVGSLLLIAFVGCSDVWKQR | < -0.25 |
| VVGVPSAMNWRALQEWHPTS | < -0.25 |
| VVHCNQPSLASLKIRPTLRT | < -0.25 |
| VVHDIGRKSAHARFVEIRHL | < -0.25 |
| VVHHGGYSPGDTWRDRILKS | < -0.25 |
| VVHTQVEKA | < -0.25 |
| VVI | < -0.25 |
| VVIAAVSHTVL | < -0.25 |
| VVIDCV | < -0.25 |
| VVIDHRNGHTRRHRIRECGV | < -0.25 |
| VVIHQGTDLTRFTTNNEAPD | < -0.25 |
| VVIYLEGVSP | < -0.25 |
| VVKGGVE | < -0.25 |
| VVKKVVVPCRLSRFTARSV | < -0.25 |
| VVKRMVVFRTDDSLDLHWSE | < -0.25 |
| VVL | < -0.25 |
| VVLDDAVT | < -0.25 |
| VVLG | < -0.25 |

| Substance | growth estimate |
| --- | --- |
| VVLRSHDWGGQHFPGSKVNL | -0.25 |
| VVLYYSLGFGN | < -0.25 |
| VVMGWGRLLYVMCQDLGTNR | < -0.25 |
| VVMQVYPNQVEAGYYSV | < -0.25 |
| VVNKRRG | < -0.25 |
| VVNVLEV | < -0.25 |
| VVRRGPSTLQVRWASTYVVS | < -0.25 |
| VVRVRPPGSRILPSTTLGPR | < -0.25 |
| VVSGDPEAVRTLGSSPRWPA | < -0.25 |
| VVSLCGKRKSSTSRCRQHEQ | < -0.25 |
| VVSSNVRPRDGLRGFQECR | < -0.25 |
| VVVFSRAS | < -0.25 |
| VVVQSLKRRL | -0.238 |
| VVVRL | < -0.25 |
| VVVRRPAEVECCESSPK | < -0.25 |
| VVVS | < -0.25 |
| VVVSWRGRTKCTGWFVNGS | < -0.25 |
| VVVYYTNLGGVPGSMKSVIS | < -0.25 |
| VVWEAV | < -0.25 |
| VVYLARSRGCRRPSTSVKG | < -0.25 |
| VWA | < -0.25 |
| VWAPIYVYARIFLMVDHADG | < -0.25 |

Already shown: entries from further up.

| Substance | growth estimate |
| --- | --- |
| VSDYDSRGREPVVQGSAHKC | < -0.25 |
| VSEHGSRVDSQVLTVILASE | < -0.25 |

From the supplement of paper PMC5949888
